According to US9978954B2, “Benzobis (thiadiazole) derivative, ink comprising same, and organic electronic device comprising same” (UBE INDUSTRIES, LTD., priority 2013, dated 2018):

What was measured:
[1] = Field-effect mobility of organic TFT, organic semiconductor layer by spin-coating
[2] = Field-effect mobility of organic TFT, organic semiconductor layer by drop-casting
[3] = Field-effect mobility of organic TFT, organic semiconductor layer by vacuum deposition, incl. after being left in the atmosphere; details: drain voltage 100 V
[4] = ink 0.1 wt % in chloroform heated at 60° C., CYC substrate, heated at 240° C. for 35 minutes, drain voltage 20 V
[5] = ink 0.1 wt % in chloroform heated at 60° C., CYC substrate, heated at 240° C. for 35 minutes, drain voltage 100 V
[6] = ink 0.1 wt % in chloroform heated at 60° C., PVP substrate, heated at 180° C. for 35 minutes, drain voltage 100 V

SMILES: FC(F)(F)Oc1cccc(-c2ccc(-c3c4c(c(-c5ccc(-c6cccc(OC(F)(F)F)c6)s5)c5nsnc35)N=S=N4)s2)c1 [Compound (C1), 4,8-bis[5-(3-(trifluoromethoxy)phenyl)thiophene-2-yl]benzo[1,2-c:4,5-c′]bis[1,2,5]thiadiazole]
- field-effect mobility (μ) ([1]; ink 0.3 wt % in mesitylene heated at 130° C., CYC substrate, heated at 210° C. for 1 minute, drain voltage 100 V): 1.6×10^0 cm^2/Vs
- field-effect mobility (μ) ([1]; ink 0.3 wt % in mesitylene heated at 130° C., PS substrate, no annealing, drain voltage 100 V): 1.3×10^−1 cm^2/Vs
- field-effect mobility (μ) ([1]; ink 0.3 wt % in mesitylene heated at 130° C., PVP substrate, heated at 180° C. for 35 minutes, drain voltage 100 V): 6.1×10^−1 cm^2/Vs
- field-effect mobility (μ) ([2]; bottom gate-bottom contact device on glass substrate, polyvinylphenol-melamine film, ink 0.2 wt % in methyl salicylate heated at 100° C., dried at 80° C., drain voltage 40 V): 1.0×10^−1 cm^2/Vs
- field-effect mobility (μ) ([2]; bottom gate-top contact device on glass substrate, polyvinylphenol-melamine film, ink 0.2 wt % in methyl salicylate heated at 100° C., dried at 80° C., drain voltage 40 V): 6.3×10^−1 cm^2/Vs
- field-effect mobility (μ) ([2]; ink 0.1 wt % in 1,2-dichlorobenzene heated at 130° C., drop-casted at 130° C. under nitrogen, dried at 80° C., PVP substrate, drain voltage 100 V): 2.0×10^−1 cm^2/Vs
- field-effect mobility (μ) ([3]; HMDS-modified substrate, initial): 5.6×10^−1 cm^2/Vs
- field-effect mobility (μ) ([3]; HMDS-modified substrate, left in the atmosphere 14 days in total): 4.9×10^−1 cm^2/Vs
- field-effect mobility (μ) ([3]; HMDS-modified substrate, left in the atmosphere 28 days in total): 4.8×10^−1 cm^2/Vs
- field-effect mobility (μ) ([3]; HMDS-modified substrate, left in the atmosphere 60 days in total): 4.8×10^−1 cm^2/Vs
- field-effect mobility (μ) ([3]; HMDS-modified substrate, left in the atmosphere 89 days in total): 4.7×10^−1 cm^2/Vs
- field-effect mobility (μ) ([3]; HMDS-modified substrate, left in the atmosphere 118 days in total): 6.3×10^−1 cm^2/Vs
- field-effect mobility (μ) ([3]; HMDS-modified substrate, left in the atmosphere for 7 days): 4.8×10^−1 cm^2/Vs
- field-effect mobility (μ) ([3]; PS substrate, initial): 5.3×10^−1 cm^2/Vs
- field-effect mobility (μ) ([3]; PS substrate, left in the atmosphere 14 days in total): 4.1×10^−1 cm^2/Vs
- field-effect mobility (μ) ([3]; PS substrate, left in the atmosphere 28 days in total): 4.1×10^−1 cm^2/Vs
- field-effect mobility (μ) ([3]; PS substrate, left in the atmosphere 60 days in total): 4.1×10^−1 cm^2/Vs
- field-effect mobility (μ) ([3]; PS substrate, left in the atmosphere 89 days in total): 4.2×10^−1 cm^2/Vs
- field-effect mobility (μ) ([3]; PS substrate, left in the atmosphere 118 days in total): 4.2×10^−1 cm^2/Vs
- field-effect mobility (μ) ([3]; PS substrate, left in the atmosphere for 7 days): 4.1×10^−1 cm^2/Vs

SMILES: CCCCCCc1cc(-c2ccc(-c3c4c(c(-c5ccc(-c6ccc(C#N)c(CCCCCC)c6)s5)c5nsnc35)N=S=N4)s2)ccc1C#N [Compound (C8), 4,8-bis[5-(4-cyano-3-hexylphenyl)thiophene-2-yl]benzo[1,2-c:4,5-c′]bis[1,2,5]thiadiazole]
- field-effect mobility (μ) ([1]; ink 0.1 wt % in chloroform heated at 60° C., CYC substrate, heated at 150° C. for 35 minutes, drain voltage 100 V): 4.3×10^−1 cm^2/Vs
- field-effect mobility (μ) [1, 4]: 4.6×10^−1 cm^2/Vs
- field-effect mobility (μ) [1, 5]: 2.0×10^0 cm^2/Vs
- field-effect mobility (μ) ([1]; ink 0.1 wt % in chloroform heated at 60° C., PS substrate, heated at 120° C. for 35 minutes, drain voltage 100 V): 2.7×10^−1 cm^2/Vs
- field-effect mobility (μ) [1, 6]: 7.3×10^−1 cm^2/Vs
- field-effect mobility (μ) ([1]; ink 0.1 wt % in chloroform heated at 60° C., bare substrate, heated at 240° C. for 35 minutes, drain voltage 100 V): 7.1×10^−1 cm^2/Vs
- field-effect mobility (μ) ([1]; ink 0.1 wt % in chloroform heated at 60° C., bare substrate, no annealing, drain voltage 100 V): 4.9×10^−1 cm^2/Vs
- field-effect mobility (μ) ([2]; ink 0.03 wt % in 1,2-dichlorobenzene heated at 130° C., drop-casted at 100° C. under nitrogen, PVP substrate, drain voltage 100 V): 7.3×10^−1 cm^2/Vs

SMILES: CCCCCCCCCCCCc1cc(-c2ccc(-c3c4c(c(-c5ccc(-c6ccc(C#N)c(CCCCCCCCCCCC)c6)s5)c5nsnc35)N=S=N4)s2)ccc1C#N [Compound (C17), 4,8-bis[5-(4-cyano-3-dodecylphenyl)thiophene-2-yl]benzo[1,2-c:4,5-c′]bis[1,2,5]thiadiazole]
- field-effect mobility (μ) [1, 4]: 1.1×10^0 cm^2/Vs
- field-effect mobility (μ) ([1]; ink 0.1 wt % in chloroform heated at 60° C., CYC substrate, heated at 240° C. for 35 minutes, drain voltage 50 V): 2.2×10^0 cm^2/Vs
- field-effect mobility (μ) [1, 5]: 3.1×10^0 cm^2/Vs
- field-effect mobility (μ) ([1]; ink 0.1 wt % in chloroform heated at 60° C., PVP substrate, heated at 180° C. for 35 minutes, drain voltage 20 V): 8.8×10^−1 cm^2/Vs
- field-effect mobility (μ) ([1]; ink 0.1 wt % in chloroform heated at 60° C., PVP substrate, heated at 180° C. for 35 minutes, drain voltage 50 V): 1.1×10^0 cm^2/Vs
- field-effect mobility (μ) [1, 6]: 3.1×10^0 cm^2/Vs
- field-effect mobility (μ) ([1]; ink 0.1 wt % in chloroform heated at 60° C., bare substrate, heated at 180° C. for 35 minutes, drain voltage 100 V): 2.3×10^0 cm^2/Vs
- field-effect mobility (μ) ([2]; bottom gate-bottom contact, 0.12 wt % solution in 1-methylnaphthalene mixed 1:1 with dodecanol 200 μmol/L, PVP substrate, heated at 150° C. for 35 minutes, drain voltage 50 V): 2.8×10^−2 cm^2/Vs
- field-effect mobility (μ) ([2]; bottom gate-bottom contact, 0.12 wt % solution in 1-methylnaphthalene mixed 1:1 with dodecylamine 20 μmol/L, PVP substrate, heated at 150° C. for 35 minutes, drain voltage 50 V): 3.0×10^−2 cm^2/Vs
- field-effect mobility (μ) ([2]; bottom gate-bottom contact, 0.2 wt % solution in 1-methylnaphthalene mixed 1:1 with 4-methylbenzenethiol 20 μmol/L, PVP substrate, heated at 150° C. for 35 minutes, drain voltage 50 V): 3.2×10^−2 cm^2/Vs
- field-effect mobility (μ) ([2]; bottom gate-bottom contact, 0.2 wt % solution in 1-methylnaphthalene mixed 1:1 with hexanethiol 200 μmol/L, PVP substrate, heated at 150° C. for 35 minutes, drain voltage 50 V): 3.3×10^−2 cm^2/Vs
- field-effect mobility (μ) ([2]; bottom gate-bottom contact, 0.2 wt % solution in 1-methylnaphthalene mixed 1:1 with octadecanethiol 200 μmol/L, PVP substrate, heated at 150° C. for 35 minutes, drain voltage 50 V): 2.8×10^−2 cm^2/Vs
- field-effect mobility (μ) ([2]; bottom gate-bottom contact, ink 0.06 wt % in 1-methylnaphthalene heated at 120° C., PVP substrate, heated at 150° C. for 35 minutes, drain voltage 50 V): 5.1×10^−3 cm^2/Vs
- field-effect mobility (μ) ([2]; bottom gate-bottom contact, ink 0.1 wt % in 1-methylnaphthalene heated at 120° C., PVP substrate, heated at 150° C. for 35 minutes, drain voltage 50 V): 1.6×10^−2 cm^2/Vs
- field-effect mobility (μ) ([2]; bottom gate-bottom contact, ink 0.1 wt % in 1-methylnaphthalene:methyl salicylate=1:1 heated at 120° C., PVP substrate, heated at 150° C. for 35 minutes, drain voltage 50 V): 2.6×10^−2 cm^2/Vs
- field-effect mobility (μ) ([2]; ink 0.01 wt % in cyclohexylbenzene heated at 100° C., PVP substrate, heated at 100° C. for 35 minutes, drain voltage 50 V): 1.6×10^−1 cm^2/Vs
- field-effect mobility (μ) ([2]; ink 0.01 wt % in cyclohexylbenzene:1-methylnaphthalene=1:0.3 heated at 100° C., PVP substrate, heated at 100° C. for 35 minutes, drain voltage 50 V): 1.8×10^−1 cm^2/Vs
- field-effect mobility (μ) ([2]; ink 0.03 wt % in 1-methylnaphthalene heated at 100° C., PVP substrate, heated at 100° C. for 35 minutes, drain voltage 50 V): 6.0×10^−2 cm^2/Vs
- field-effect mobility (μ) ([2]; ink 0.03 wt % in chlorobenzene heated at 100° C., PVP substrate, heated at 100° C. for 35 minutes, drain voltage 50 V): 3.1×10^−1 cm^2/Vs
- field-effect mobility (μ) ([2]; ink 0.03 wt % in methyl benzoate heated at 100° C., PVP substrate, heated at 100° C. for 35 minutes, drain voltage 50 V): 3.8×10^−1 cm^2/Vs
- field-effect mobility (μ) ([2]; ink 0.03 wt % in tetralin heated at 100° C., PVP substrate, heated at 100° C. for 35 minutes, drain voltage 50 V): 2.7×10^−1 cm^2/Vs
